The values that follow come from PubChem BioAssay AID192 (DTP/NCI, 2004).

In the assay the test system is BDF1 mice, B16 melanoma ip, median survival T/C. Description: NCI In Vivo Anticancer Drug Screen. Data for tumor model B16 Melanoma (intraperitoneal) in B6D2F1 (BDF1) mice. To be noted: T/C endpoint: median survival time, higher T/C = longer survival. In outline: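 The ratio T/C compares compound-treated mice with vehicle-treated controls, using survival or tumor size as the endpoint in a transplantable tumor model.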

Setting [1] is: dose: 100.0 mg/kg/injection, schedule: Q01DX009 (ip), vehicle: Klucel (hydroxypropylcellulose) (HPC).
The mark [2] stands for this setting: dose: 400.0 mg/kg/injection, schedule: Q01DX009 (ip), vehicle: saline with Tween-80.
[3] abbreviates: dose: 400.0 mg/kg/injection, schedule: Q01DX009 (ip), vehicle: Klucel (hydroxypropylcellulose) (HPC).
Where [4] appears, read: dose: 8.0 mg/kg/injection, schedule: Q01DX009 (ip), vehicle: Klucel (hydroxypropylcellulose) (HPC).
Setting [5] is: dose: 1.0 mg/kg/injection, schedule: Q01DX009 (ip), vehicle: Klucel (hydroxypropylcellulose) (HPC).

The list is a part of this screen's results and no random one: it gathers tests that were run many times, whatever their T/C, doses with no T/C, and many T/C values between a quarter and a half above the control. Further doses and runs are listed elsewhere. T/C: endpoint of the treated group in % of that of the vehicle group. Some doses have a count of surviving animals in place of a T/C: the source holds a T/C of zero for them, seemingly a mark for toxic or unscored doses. Some survivor counts are full or nearly so, which does not show that the dose was tolerated: the source hardly ever lists a survival T/C far under the control, and the zero likely stands for such cases as well. Survivors were counted at the toxicity check, usually on the fifth day, unless a day is given; later deaths do not show. Schedules are NCI's codes, taken here to give the interval after Q, in days (D) or hours (H), and the number of doses after X. Some entries were tested several times; the results are listed from low to high. Counts like (3×) stand for listed records that agree. For survival time, this PubChem deposit counts one and a half times the control or more as active, and values a quarter to a half above the control carry no call in these data; other NCI protocols may use other cut-offs.

Consider `Nc1c(Cl)c(Cl)nc(C(=O)O)c1Cl`, for which the survivor count was 10 of 10 (dose: 25.0 mg/kg/injection, schedule: Q02DX009 (ip), vehicle: other); 10 of 10 (dose: 100.0 mg/kg/injection, schedule: Q02DX009 (ip), vehicle: Klucel (hydroxypropylcellulose) (HPC)); 10 of 10 (dose: 200.0 mg/kg/injection, schedule: Q02DX009 (ip), vehicle: Klucel (hydroxypropylcellulose) (HPC)); 9 of 10 (dose: 200.0 mg/kg/injection, schedule: Q02DX009 (ip), vehicle: other); 1 of 10 (dose: 400.0 mg/kg/injection, schedule: Q02DX009 (ip), vehicle: Klucel (hydroxypropylcellulose) (HPC)); 7 of 10 (dose: 400.0 mg/kg/injection, schedule: Q02DX009 (ip), vehicle: other).

Take `CC(Br)C(=O)NC(Cc1ccccc1)C(=O)O` (stereo not given): the survivor count (dose: 200.0 mg/kg/injection, schedule: Q01DX009 (ip), vehicle: saline with Tween-80) is 10 of 10.

Consider `CNCc1ccccc1C(O)c1ccc(Cl)cc1` (stereo not given), for which the survivor count under setting [1] was 9 of 10.

Consider `O=c1cc2oc3c(O)c(O)ccc3c3c4ccccc4c(=O)c(c1)c23`, for which the survivor count (dose: 50.0 mg/kg/injection, schedule: Q01DX009 (ip), vehicle: saline) is 10 of 10.

Take `Cc1ncc([N+](=O)[O-])n1CCSC(N)=O`: the survivor count (dose: 50.0 mg/kg/injection, schedule: Q01DX009 (ip), vehicle: saline with Tween-80) is reported as 9 of 10 and the survivor count under setting [2] is 5 of 10.

Consider `N#CCN(CC#N)CC#N`, for which the survivor count (dose: 1.56 mg/kg/injection, schedule: Q04DX003 (ip), vehicle: saline with Tween-80) was 9 of 10.

Turning to `C=C(C)C1CCC2(C=O)CCC3(C)C(CCC4C5(C)CCC(O)C(C)(C)C5CCC43C)C12` (stereo not given), where the note is “dose: 37.5 mg/kg/injection, schedule: Q01DX009 (ip), vehicle: Klucel (hydroxypropylcellulose) (HPC)”, the survivor count is given as 10 of 10.

For `O=S(=O)(NN=C(c1ccccc1)c1ccccc1)c1ccccc1`, the survivor count runs as follows: (dose: 50.0 mg/kg/injection, schedule: Q01DX009 (ip), vehicle: Klucel (hydroxypropylcellulose) (HPC)) 10 of 10; under setting [1], 10 of 10; (dose: 200.0 mg/kg/injection, schedule: Q01DX009 (ip), vehicle: Klucel (hydroxypropylcellulose) (HPC)) 10 of 10; under setting [3], 10 of 10.

Take `COc1cccc2c1C(=O)c1c(O)c3c(c(O)c1C2=O)C[C@@](O)(/C(C)=N/NC(=O)c1ccc(S(N)(=O)=O)cc1)C[C@@H]3OC1CC(N)C(O)C(C)O1` (stereo not given in full): the T/C was 141 % of control (dose: 0.78 mg/kg/injection, schedule: Q01DX009 (ip), vehicle: water) and 147 % of control (dose: 1.56 mg/kg/injection, schedule: Q01DX009 (ip), vehicle: water). Further, the survivor count (dose: 25.0 mg/kg/injection, schedule: Q01DX009 (ip), vehicle: water) is 10 of 10.

Take `CCC(C)C(N)C(=O)NC(CC(N)=O)C(=O)NC(CC(C)C)C(=O)NC(CCCCN)C(=O)NC(C)C(=O)NC(CC(C)C)C(=O)NC(C)C(=O)NC(C)C(=O)NC(CC(C)C)C(=O)NC(C)C(=O)NC(CCCCN)C(=O)NC(CCCCN)C(=O)NC(C(=O)NC(CC(C)C)C(N)=O)C(C)CC` (stereo not given): the survivor count by setting is: under setting [4], 10 of 10; (dose: 16.0 mg/kg/injection, schedule: Q01DX009 (ip), vehicle: Klucel (hydroxypropylcellulose) (HPC)) 10 of 10.

For the compound `N#Cc1ccccc1C(C#N)c1ccc([N+](=O)[O-])cc1` (stereo not given), the survivor count is on record as 6 of 10 under setting [2] and 3 of 10 (dose: 600.0 mg/kg/injection, schedule: Q01DX009 (ip), vehicle: saline with Tween-80).

With `N#CCCNC(Cc1ccc(O)cc1)C(=O)O` (stereo not given), the survivor count runs as follows: (dose: 12.5 mg/kg/injection, schedule: Q01DX009 (ip), vehicle: Klucel (hydroxypropylcellulose) (HPC)) 10 of 10; (dose: 115.0 mg/kg/injection, schedule: Q01DX009 (ip), vehicle: Klucel (hydroxypropylcellulose) (HPC)) 10 of 10; (dose: 170.0 mg/kg/injection, schedule: Q01DX009 (ip), vehicle: Klucel (hydroxypropylcellulose) (HPC)) 1 of 10; (dose: 225.0 mg/kg/injection, schedule: Q04DX003 (ip), vehicle: Klucel (hydroxypropylcellulose) (HPC)) 4 of 10.

In the case of `CCC(C(C)N1CC(=O)NC(=O)C1)N1CC(=O)NC(=O)C1` (stereo not given), the T/C was 132 % of control (dose: 0.5 mg/kg/injection, schedule: Q01DX009 (ip), vehicle: Klucel (hydroxypropylcellulose) (HPC)); 140 % of control under setting [5]; 127 and 133 % of control (dose: 4.0 mg/kg/injection, schedule: Q04DX003 (ip), vehicle: Klucel (hydroxypropylcellulose) (HPC)). Also, the survivor count under setting [5] is reported as 10 of 10; the survivor count (dose: 2.0 mg/kg/injection, schedule: Q01DX009 (ip), vehicle: Klucel (hydroxypropylcellulose) (HPC)) is on record as 10 of 10; the survivor count (dose: 4.0 mg/kg/injection, schedule: Q01DX009 (ip), vehicle: Klucel (hydroxypropylcellulose) (HPC)) is recorded as 10 of 10; the survivor count under setting [4] is 10 of 10; the survivor count (dose: 8.0 mg/kg/injection, schedule: Q04DX003 (ip), vehicle: Klucel (hydroxypropylcellulose) (HPC)) is listed as 10 of 10; the survivor count (dose: 16.0 mg/kg/injection, schedule: Q04DX003 (ip), vehicle: Klucel (hydroxypropylcellulose) (HPC)) was 5 of 10 and 10 of 10. For the setting “dose: 32.0 mg/kg/injection, schedule: Q04DX003 (ip), vehicle: Klucel (hydroxypropylcellulose) (HPC)”, the survivor count is 6 of 10.

Regarding `CCC(C)C(CO)c1ccccc1` (stereo not given), the survivor count (dose: 100.0 mg/kg/injection, schedule: Q01DX009 (ip), vehicle: saline with Tween-80) was 10 of 10.

Take `CSc1nc(N)nc2c1ncn2C1OC(CO)C(O)C1O` (stereo not given): the T/C (dose: 50.0 mg/kg/injection, schedule: Q01DX009 (ip), vehicle: suspension in saline) was 127 % of control. Besides, where the note is “dose: 400.0 mg/kg/injection, schedule: Q01DX009 (ip), vehicle: suspension in saline”, the survivor count was 2 of 10.

As for `C1CCN(CCC2CCNCC2)C1`, under “dose: 100.0 mg/kg/injection, schedule: Q01DX009 (ip), vehicle: saline”, the survivor count is 10 of 10.

In the case of `Cc1ccc2c(ccc3c[n+]4ccccc4c(C)c32)c1`, the survivor count (dose: 10.0 mg/kg/injection, schedule: Q01DX009 (ip), vehicle: saline with Tween-80) was 4 of 10 (2×) and the survivor count (dose: 20.0 mg/kg/injection, schedule: Q01DX009 (ip), vehicle: saline with Tween-80) was 1 of 10.

For `CC(C)c1ccc(NC(=O)Nc2cccc3ccccc23)cc1`, the survivor count under setting [3] was 6 of 6.

As to `CCC(C)C(CC(=O)O)C(=O)O` (stereo not given), the survivor count is listed as 10 of 10 (dose: 100.0 mg/kg/injection, schedule: Q04DX003 (ip), vehicle: saline with Tween-80); 10 of 10 (dose: 200.0 mg/kg/injection, schedule: Q04DX003 (ip), vehicle: saline with Tween-80); 10 of 10 (dose: 400.0 mg/kg/injection, schedule: Q04DX003 (ip), vehicle: saline with Tween-80).

For `CC1OC(O[C@H]2/C=C/C=C/C=C/C=C/C=C/C=C/C=C/[C@H](C)[C@@H](O)[C@@H](C)[C@H](C)OC(=O)C[C@H](O)C[C@H](O)CC[C@@H](O)[C@H](O)C[C@H](O)C[C@]3(O)C[C@H](O)[C@@H](C(=O)O)[C@H](C2)O3)C(O)C(N)C1O` (stereo not given in full), the survivor count is, setting by setting: (dose: 32.0 mg/kg/injection, schedule: Q01DX009 (ip), vehicle: saline) 4 of 10 and 5 of 10; (dose: 64.0 mg/kg/injection, schedule: Q01DX009 (ip), vehicle: saline) 0 of 10 and 1 of 10; (dose: 128.0 mg/kg/injection, schedule: Q01DX009 (ip), vehicle: saline) 0 of 10.

Take `C1CCNCC1`: where the note is “dose: 400.0 mg/kg/injection, schedule: Q01DX009 (ip), vehicle: saline”, the survivor count is listed as 9 of 10.

As for `Cc1cc2nc(-c3ccccc3O)[nH]c2cc1C`, under setting [3], the T/C was 131 % of control and the survivor count is listed as 6 of 10.

On to `O=C(O)C(S)c1ccc2ccccc2c1` (stereo not given), for which the survivor count under setting [3] was 4 of 10.
